# Assay results taken from the supplement of paper PMC8728848.
# The other results are listed elsewhere or left out.
# B1: S100A12 (Homo sapiens), P80511 (protein)
# chain: MTKLEEHLEGIVNIFHQYSVRKGHFDTLSKGELKQLLTKELANTIKNIKDKAVIDEIFQGLDANQDEQVDFQEFISLVAIALKAAHYHTHKE
# Columns and labels:
# Assay in all cases: glycan array binding signal (z-score within array); higher = stronger binding
# Settings in all cases: glycan notation: IUPAC condensed, linker removed
# [1] = target: Gal(b1-3)[Neu5Ac(a2-6)]GlcNAc(a1-4)Gal(b1-4)Glc
# Procedure, shortened: (§1)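 Glycan array data were curated from 3228 arrays in the Consortium for Functional Glycomics database and kept only where the protein sequence was available. Glycan names were converted to IUPAC-condensed notation, and columns mapping to the same glycan were averaged. The binding signal is a within-array Z-score, averaged across arrays of the same protein sequence at different concentrations or buffers and across linkers. Negative Z-scores can be read as non-binding.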
# [2] = target: Gal(b1-3)[Neu5Ac(a2-6)]GlcNAc(b1-6)Gal(b1-4)Glc
# Procedure, shortened: as §1
# [3] = target: Gal(b1-3)[Neu5Ac(b2-6)]GalNAc
# Procedure, shortened: as §1
# [4] = target: Gal(b1-3)[Neu5Ac(b2-6)]GlcNAc
# Procedure, shortened: as §1
# [5] = target: Gal(b1-4)GalNAc(a1-3)[Fuc(a1-2)]Gal(b1-4)GlcNAc
# Procedure, shortened: as §1
# [6] = target: Gal(b1-4)GalNAc(b1-3)[Fuc(a1-2)]Gal(b1-4)GlcNAc
# Procedure, shortened: as §1
# Gal(b1-4)Glc = target: Gal(b1-4)Glc
# Procedure, shortened: as §1
# Gal(b1-4)Glc6S = target: Gal(b1-4)Glc6S
# Procedure, shortened: as §1
# Gal(b1-4)GlcNAc = target: Gal(b1-4)GlcNAc
# Procedure, shortened: as §1
# [7] = target: Gal(b1-4)GlcNAc(b1-2)Man(a1-3)[Gal(b1-4)GlcNAc(b1-2)Man(a1-6)]Man(b1-4)GlcNAc(b1-4)GlcNAc
# Procedure, shortened: as §1
# [8] = target: Gal(b1-4)GlcNAc(b1-3)Gal(b1-3)GlcNAc
# Procedure, shortened: as §1
# [9] = target: Gal(b1-4)GlcNAc(b1-3)Gal(b1-4)Glc
# Procedure, shortened: as §1
# [10] = target: Gal(b1-4)GlcNAc(b1-3)Gal(b1-4)GlcNAc
# Procedure, shortened: as §1
# [11] = target: Gal(b1-4)GlcNAc(b1-3)Gal(b1-4)GlcNAc(b1-3)Gal(b1-4)GlcNAc
# Procedure, shortened: as §1
# [12] = target: Gal(b1-4)GlcNAc(b1-3)Gal(b1-4)[Fuc(a1-3)]GlcNAc(b1-3)Gal(b1-4)[Fuc(a1-3)]GlcNAc
# Procedure, shortened: as §1
# [13] = target: Gal(b1-4)GlcNAc(b1-3)GalNAc
# Procedure, shortened: as §1
# [14] = target: Gal(b1-4)GlcNAc(b1-3)[Gal(b1-4)GlcNAc(b1-6)]GalNAc
# Procedure, shortened: as §1
# [15] = target: Gal(b1-4)GlcNAc(b1-6)Gal(b1-4)GlcNAc(b1-6)GalNAc
# Procedure, shortened: as §1
# [16] = target: Gal(b1-4)GlcNAc(b1-6)GalNAc
# Procedure, shortened: as §1
# [17] = target: Gal(b1-4)GlcNAc(b1-6)[Gal(b1-3)]GalNAc
# Procedure, shortened: as §1
# [18] = target: Gal(b1-4)GlcNAc(b1-6)[Gal(b1-3)]GlcNAc
# Procedure, shortened: as §1
# Gal3S(b1-3)GalNAc = target: Gal3S(b1-3)GalNAc
# Procedure, shortened: as §1
# Gal3S(b1-3)GlcNAc = target: Gal3S(b1-3)GlcNAc
# Procedure, shortened: as §1
# [19] = target: Gal3S(b1-3)[Fuc(a1-4)]GlcNAc
# Procedure, shortened: as §1
# Gal3S(b1-4)Glc = target: Gal3S(b1-4)Glc
# Procedure, shortened: as §1
# Gal3S(b1-4)Glc6S = target: Gal3S(b1-4)Glc6S
# Procedure, shortened: as §1
# Gal3S(b1-4)GlcNAc = target: Gal3S(b1-4)GlcNAc
# Procedure, shortened: as §1
# Gal3S(b1-4)GlcNAc6S = target: Gal3S(b1-4)GlcNAc6S
# Procedure, shortened: as §1
# Gal3S6S(b1-4)GlcNAc = target: Gal3S6S(b1-4)GlcNAc
# Procedure, shortened: as §1
# Gal3S6S(b1-4)GlcNAc6S = target: Gal3S6S(b1-4)GlcNAc6S
# Procedure, shortened: as §1
# Gal4S(b1-4)GlcNAc = target: Gal4S(b1-4)GlcNAc
# Procedure, shortened: as §1
# Gal4S6S(b1-4)GlcNAc = target: Gal4S6S(b1-4)GlcNAc
# Procedure, shortened: as §1
# Gal6S(b1-4)Glc = target: Gal6S(b1-4)Glc
# Procedure, shortened: as §1
# Gal6S(b1-4)Glc6S = target: Gal6S(b1-4)Glc6S
# Procedure, shortened: as §1
# Gal6S(b1-4)GlcNAc = target: Gal6S(b1-4)GlcNAc
# Procedure, shortened: as §1
# GalNAc(a1-3)Gal = target: GalNAc(a1-3)Gal
# Procedure, shortened: as §1
# GalNAc(a1-3)GalNAc = target: GalNAc(a1-3)GalNAc
# Procedure, shortened: as §1
# [20] = target: GalNAc(b1-3)Gal(a1-4)Gal(b1-4)GlcNAc
# Procedure, shortened: as §1
# GalNAc(b1-3)GalNAc = target: GalNAc(b1-3)GalNAc
# Procedure, shortened: as §1
# GalNAc(b1-4)GlcNAc = target: GalNAc(b1-4)GlcNAc
# Procedure, shortened: as §1
# Glc(a1-4)Glc = target: Glc(a1-4)Glc
# Procedure, shortened: as §1
# Glc(a1-6)Glc(a1-6)Glc = target: Glc(a1-6)Glc(a1-6)Glc
# Procedure, shortened: as §1
# Glc(b1-4)Glc = target: Glc(b1-4)Glc
# Procedure, shortened: as §1
# Glc(b1-6)Glc = target: Glc(b1-6)Glc
# Procedure, shortened: as §1
# GlcA(b1-3)Gal = target: GlcA(b1-3)Gal
# Procedure, shortened: as §1
binder,measurement,setting,value
B1,glycan array binding signal (z-score),[1],-0.277
same,glycan array binding signal (z-score),[2],-0.42
same,glycan array binding signal (z-score),[3],0.585
same,glycan array binding signal (z-score),[4],-0.479
same,glycan array binding signal (z-score),[5],-0.549
same,glycan array binding signal (z-score),[6],-0.523
same,glycan array binding signal (z-score),Gal(b1-4)Glc,0.655
same,glycan array binding signal (z-score),Gal(b1-4)Glc6S,0.919
same,glycan array binding signal (z-score),Gal(b1-4)GlcNAc,-0.535
same,glycan array binding signal (z-score),[7],-0.82
same,glycan array binding signal (z-score),[8],-0.391
same,glycan array binding signal (z-score),[9],-0.554
same,glycan array binding signal (z-score),[10],-0.526
same,glycan array binding signal (z-score),[11],-0.226
same,glycan array binding signal (z-score),[12],-0.064
same,glycan array binding signal (z-score),[13],-0.812
same,glycan array binding signal (z-score),[14],-0.703
same,glycan array binding signal (z-score),[15],-0.768
same,glycan array binding signal (z-score),[16],-0.528
same,glycan array binding signal (z-score),[17],-0.655
same,glycan array binding signal (z-score),[18],-0.243
same,glycan array binding signal (z-score),Gal3S(b1-3)GalNAc,0.207
same,glycan array binding signal (z-score),Gal3S(b1-3)GlcNAc,0.125
same,glycan array binding signal (z-score),[19],0.019
same,glycan array binding signal (z-score),Gal3S(b1-4)Glc,1.05
same,glycan array binding signal (z-score),Gal3S(b1-4)Glc6S,2.45
same,glycan array binding signal (z-score),Gal3S(b1-4)GlcNAc,-0.018
same,glycan array binding signal (z-score),Gal3S(b1-4)GlcNAc6S,2.67
same,glycan array binding signal (z-score),Gal3S6S(b1-4)GlcNAc,1.74
same,glycan array binding signal (z-score),Gal3S6S(b1-4)GlcNAc6S,2.83
same,glycan array binding signal (z-score),Gal4S(b1-4)GlcNAc,0.456
same,glycan array binding signal (z-score),Gal4S6S(b1-4)GlcNAc,2.91
same,glycan array binding signal (z-score),Gal6S(b1-4)Glc,0.447
same,glycan array binding signal (z-score),Gal6S(b1-4)Glc6S,2.19
same,glycan array binding signal (z-score),Gal6S(b1-4)GlcNAc,0.742
same,glycan array binding signal (z-score),GalNAc(a1-3)Gal,-0.359
same,glycan array binding signal (z-score),GalNAc(a1-3)GalNAc,-0.65
same,glycan array binding signal (z-score),[20],-0.499
same,glycan array binding signal (z-score),GalNAc(b1-3)GalNAc,-0.726
same,glycan array binding signal (z-score),GalNAc(b1-4)GlcNAc,-0.557
same,glycan array binding signal (z-score),Glc(a1-4)Glc,-0.387
same,glycan array binding signal (z-score),Glc(a1-6)Glc(a1-6)Glc,0.4
same,glycan array binding signal (z-score),Glc(b1-4)Glc,0.689
same,glycan array binding signal (z-score),Glc(b1-6)Glc,0.421
same,glycan array binding signal (z-score),GlcA(b1-3)Gal,0.368

# Quoted at random: four records from the list.
binder,measurement,setting,value
B1,glycan array binding signal (z-score),Gal3S(b1-3)GalNAc,0.207
same,glycan array binding signal (z-score),[13],-0.812
same,glycan array binding signal (z-score),[16],-0.528
same,glycan array binding signal (z-score),Gal3S(b1-4)Glc6S,2.45
